# Measurements taken from the supplement of paper PMC8728848.
# Some of the results follow.
# B1: PhypaEULS3 (Physcomitrella patens) (protein)
# chain: MLPVRLHCKADPNFNLAAVPGQGPVMVPFSPNDDFQVWYKDVTMSTRVKDETGSSAFSLINKATGQALRHAPEDLAQCLLADYDSNALDQTVLWTMSEDMGQGYCCIRLASQITRNLDVFRGDKKSGGVKEGSPVITFAWKKQDNQIWKMITAILEQKLISEEDLNSAVDHHHHHH
# Experiments:
# Experiment in all cases: glycan array binding signal (z-score within array); higher = stronger binding
# Conditions in all cases: glycan notation: IUPAC condensed, linker removed
# [1] = molecular target: Neu5Ac(a2-3)Gal(b1-3)GlcNAc6S
# In short: (§1)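 From the Consortium for Functional Glycomics database, 3228 arrays were curated, keeping only those whose protein sequence was available. Binding is given as a within-array Z-score averaged across arrays sharing a protein sequence and across linkers. Negative Z-scores can be read as non-binding.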
# [2] = molecular target: Neu5Ac(a2-3)Gal(b1-3)[Fuc(a1-4)]GlcNAc
# In short: as §1
# [3] = molecular target: Neu5Ac(a2-3)Gal(b1-3)[Fuc(a1-4)]GlcNAc(b1-3)Gal(b1-3)[Fuc(a1-4)]GlcNAc
# In short: as §1
# [4] = molecular target: Neu5Ac(a2-3)Gal(b1-3)[Fuc(a1-4)]GlcNAc(b1-3)Gal(b1-4)[Fuc(a1-3)]GlcNAc
# In short: as §1
# [5] = molecular target: Neu5Ac(a2-3)Gal(b1-3)[GlcNAc(b1-6)]GalNAc
# In short: as §1
# [6] = molecular target: Neu5Ac(a2-3)Gal(b1-3)[Neu5Ac(a2-6)]GalNAc
# In short: as §1
# [7] = molecular target: Neu5Ac(a2-3)Gal(b1-3)[Neu5Ac(a2-6)]GlcNAc(b1-3)[Fuc(a1-3)[Gal(b1-4)]GlcNAc(b1-6)]Gal(b1-4)Glc
# In short: as §1
# [8] = molecular target: Neu5Ac(a2-3)Gal(b1-3)]Neu5Ac(a2-3)Gal(b1-4)]GlcNAc
# In short: as §1
# Neu5Ac(a2-3)Gal(b1-4)Glc = molecular target: Neu5Ac(a2-3)Gal(b1-4)Glc
# In short: as §1
# [9] = molecular target: Neu5Ac(a2-3)Gal(b1-4)GlcNAc
# In short: as §1
# [10] = molecular target: Neu5Ac(a2-3)Gal(b1-4)GlcNAc(b1-2)Man
# In short: as §1
# [11] = molecular target: Neu5Ac(a2-3)Gal(b1-4)GlcNAc(b1-2)Man(a1-3)[GlcNAc(b1-4)][Neu5Ac(a2-3)Gal(b1-4)GlcNAc(b1-2)Man(a1-6)]Man(b1-4)GlcNAc(b1-4)GlcNAc
# In short: as §1
# [12] = molecular target: Neu5Ac(a2-3)Gal(b1-4)GlcNAc(b1-2)Man(a1-3)[Neu5Ac(a2-3)Gal(b1-4)GlcNAc(b1-2)Man(a1-6)]Man(b1-4)GlcNAc(b1-4)GlcNAc
# In short: as §1
# [13] = molecular target: Neu5Ac(a2-3)Gal(b1-4)GlcNAc(b1-2)Man(a1-3)[Neu5Ac(a2-3)Gal(b1-4)GlcNAc(b1-2)Man(a1-6)]Man(b1-4)GlcNAc(b1-4)[Fuc(a1-6)]GlcNAc
# In short: as §1
# [14] = molecular target: Neu5Ac(a2-3)Gal(b1-4)GlcNAc(b1-2)Man(a1-3)[Neu5Ac(a2-6)Gal(b1-4)GlcNAc(b1-2)Man(a1-6)]Man(b1-4)GlcNAc(b1-4)GlcNAc
# In short: as §1
# [15] = molecular target: Neu5Ac(a2-3)Gal(b1-4)GlcNAc(b1-2)[Neu5Ac(a2-3)Gal(b1-4)GlcNAc(b1-4)]Man(a1-3)[GlcNAc(b1-4)][Neu5Ac(a2-3)Gal(b1-4)GlcNAc(b1-2)[Neu5Ac(a2-3)Gal(b1-4)GlcNAc(b1-6)]Man(a1-6)]Man(b1-4)GlcNAc(b1-4)GlcNAc
# In short: as §1
# [16] = molecular target: Neu5Ac(a2-3)Gal(b1-4)GlcNAc(b1-2)[Neu5Ac(a2-3)Gal(b1-4)GlcNAc(b1-4)]Man(a1-3)[GlcNAc(b1-4)][Neu5Ac(a2-3)Gal(b1-4)GlcNAc(b1-4)Man(a1-6)]Man(b1-4)GlcNAc(b1-4)GlcNAc
# In short: as §1
# [17] = molecular target: Neu5Ac(a2-3)Gal(b1-4)GlcNAc(b1-2)[Neu5Ac(a2-3)Gal(b1-4)GlcNAc(b1-6)]Man(a1-6)[Neu5Ac(a2-3)Gal(b1-4)GlcNAc(b1-2)Man(a1-3)][GlcNAc(b1-4)]Man(b1-4)GlcNAc(b1-4)GlcNAc
# In short: as §1
# [18] = molecular target: Neu5Ac(a2-3)Gal(b1-4)GlcNAc(b1-3)Gal
# In short: as §1
# [19] = molecular target: Neu5Ac(a2-3)Gal(b1-4)GlcNAc(b1-3)Gal(b1-3)GlcNAc
# In short: as §1
# [20] = molecular target: Neu5Ac(a2-3)Gal(b1-4)GlcNAc(b1-3)Gal(b1-4)GlcNAc
# In short: as §1
# [21] = molecular target: Neu5Ac(a2-3)Gal(b1-4)GlcNAc(b1-3)Gal(b1-4)GlcNAc(b1-2)Man(a1-3)[Neu5Ac(a2-3)Gal(b1-4)GlcNAc(b1-3)Gal(b1-4)GlcNAc(b1-2)Man(a1-6)]Man(b1-4)GlcNAc(b1-4)GlcNAc
# In short: as §1
# [22] = molecular target: Neu5Ac(a2-3)Gal(b1-4)GlcNAc(b1-3)Gal(b1-4)GlcNAc(b1-3)Gal(b1-4)GlcNAc
# In short: as §1
# [23] = molecular target: Neu5Ac(a2-3)Gal(b1-4)GlcNAc(b1-3)Gal(b1-4)GlcNAc(b1-3)Gal(b1-4)GlcNAc(b1-2)Man(a1-3)[Neu5Ac(a2-3)Gal(b1-4)GlcNAc(b1-3)Gal(b1-4)GlcNAc(b1-3)Gal(b1-4)GlcNAc(b1-2)Man(a1-6)]GalNAc
# In short: as §1
# [24] = molecular target: Neu5Ac(a2-3)Gal(b1-4)GlcNAc(b1-3)Gal(b1-4)GlcNAc(b1-3)GalNAc
# In short: as §1
# [25] = molecular target: Neu5Ac(a2-3)Gal(b1-4)GlcNAc(b1-3)Gal(b1-4)GlcNAc(b1-3)[Neu5Ac(a2-3)Gal(b1-4)GlcNAc(b1-3)Gal(b1-4)GlcNAc(b1-6)]GalNAc
# In short: as §1
# [26] = molecular target: Neu5Ac(a2-3)Gal(b1-4)GlcNAc(b1-3)Gal(b1-4)GlcNAc(b1-6)[Gal(b1-3)]GalNAc
# In short: as §1
# [27] = molecular target: Neu5Ac(a2-3)Gal(b1-4)GlcNAc(b1-3)Gal(b1-4)[Fuc(a1-3)]GlcNAc
# In short: as §1
# [28] = molecular target: Neu5Ac(a2-3)Gal(b1-4)GlcNAc(b1-3)GalNAc
# In short: as §1
# [29] = molecular target: Neu5Ac(a2-3)Gal(b1-4)GlcNAc(b1-3)[Neu5Ac(a2-3)Gal(b1-4)GlcNAc(b1-6)]GalNAc
# In short: as §1
# [30] = molecular target: Neu5Ac(a2-3)Gal(b1-4)GlcNAc(b1-6)GalNAc
# In short: as §1
# [31] = molecular target: Neu5Ac(a2-3)Gal(b1-4)GlcNAc(b1-6)[Gal(b1-3)]GalNAc
# In short: as §1
# [32] = molecular target: Neu5Ac(a2-3)Gal(b1-4)GlcNAc(b1-6)[Neu5Ac(a2-3)Gal(b1-3)]GalNAc
# In short: as §1
# [33] = molecular target: Neu5Ac(a2-3)Gal(b1-4)GlcNAc6S
# In short: as §1
# [34] = molecular target: Neu5Ac(a2-3)Gal(b1-4)[Fuc(a1-3)]GlcNAc
# In short: as §1
# [35] = molecular target: Neu5Ac(a2-3)Gal(b1-4)[Fuc(a1-3)]GlcNAc(b1-2)Man
# In short: as §1
# [36] = molecular target: Neu5Ac(a2-3)Gal(b1-4)[Fuc(a1-3)]GlcNAc(b1-3)Gal
# In short: as §1
# [37] = molecular target: Neu5Ac(a2-3)Gal(b1-4)[Fuc(a1-3)]GlcNAc(b1-3)Gal(b1-4)GlcNAc
# In short: as §1
# [38] = molecular target: Neu5Ac(a2-3)Gal(b1-4)[Fuc(a1-3)]GlcNAc(b1-3)Gal(b1-4)[Fuc(a1-3)]GlcNAc(b1-3)Gal(b1-4)[Fuc(a1-3)]GlcNAc
# In short: as §1
# [39] = molecular target: Neu5Ac(a2-3)Gal(b1-4)[Fuc(a1-3)]GlcNAc(b1-3)GalNAc
# In short: as §1
# [40] = molecular target: Neu5Ac(a2-3)Gal(b1-4)[Fuc(a1-3)]GlcNAc(b1-6)[Gal(b1-3)]GalNAc
# In short: as §1
# [41] = molecular target: Neu5Ac(a2-3)Gal(b1-4)[Fuc(a1-3)]GlcNAc(b1-6)[Neu5Ac(a2-3)Gal(b1-3)]GalNAc
# In short: as §1
# [42] = molecular target: Neu5Ac(a2-3)Gal(b1-4)[Fuc(a1-3)]GlcNAc6S
# In short: as §1
# [43] = molecular target: Neu5Ac(a2-3)Gal6S(b1-4)GlcNAc
# In short: as §1
# [44] = molecular target: Neu5Ac(a2-3)Gal6S(b1-4)[Fuc(a1-3)]GlcNAc
# In short: as §1
binder,measurement,setting,value
B1,glycan array binding signal (z-score),[1],0.945
same,glycan array binding signal (z-score),[2],-1.21
same,glycan array binding signal (z-score),[3],2.06
same,glycan array binding signal (z-score),[4],-1.62
same,glycan array binding signal (z-score),[5],3.83
same,glycan array binding signal (z-score),[6],0.019
same,glycan array binding signal (z-score),[7],-0.632
same,glycan array binding signal (z-score),[8],0.062
same,glycan array binding signal (z-score),Neu5Ac(a2-3)Gal(b1-4)Glc,-1.66
same,glycan array binding signal (z-score),[9],0.412
same,glycan array binding signal (z-score),[10],0.361
same,glycan array binding signal (z-score),[11],0.227
same,glycan array binding signal (z-score),[12],-1.5
same,glycan array binding signal (z-score),[13],0.319
same,glycan array binding signal (z-score),[14],-0.658
same,glycan array binding signal (z-score),[15],0.573
same,glycan array binding signal (z-score),[16],0.468
same,glycan array binding signal (z-score),[17],0.048
same,glycan array binding signal (z-score),[18],-0.235
same,glycan array binding signal (z-score),[19],0.682
same,glycan array binding signal (z-score),[20],-1.22
same,glycan array binding signal (z-score),[21],0.872
same,glycan array binding signal (z-score),[22],0.343
same,glycan array binding signal (z-score),[23],-1.07
same,glycan array binding signal (z-score),[24],1.11
same,glycan array binding signal (z-score),[25],-0.939
same,glycan array binding signal (z-score),[26],0.376
same,glycan array binding signal (z-score),[27],-1.15
same,glycan array binding signal (z-score),[28],0.783
same,glycan array binding signal (z-score),[29],-1.24
same,glycan array binding signal (z-score),[30],2.29
same,glycan array binding signal (z-score),[31],-0.182
same,glycan array binding signal (z-score),[32],-1.46
same,glycan array binding signal (z-score),[33],0.173
same,glycan array binding signal (z-score),[34],-0.111
same,glycan array binding signal (z-score),[35],-0.007
same,glycan array binding signal (z-score),[36],0.859
same,glycan array binding signal (z-score),[37],0.271
same,glycan array binding signal (z-score),[38],-0.844
same,glycan array binding signal (z-score),[39],-0.169
same,glycan array binding signal (z-score),[40],-0.413
same,glycan array binding signal (z-score),[41],-1.52
same,glycan array binding signal (z-score),[42],0.773
same,glycan array binding signal (z-score),[43],0.303
same,glycan array binding signal (z-score),[44],-0.823

# Part of the list above, reformatted.
binder	measurement	setting	value
B1	glycan array binding signal (z-score)	[30]	2.29
same	glycan array binding signal (z-score)	[36]	0.859
